Experimental data published in paper PMC9169357.
No constants are given. Whether binding was seen depends on the method and setting. Binding can be weak; no strength is given. For some of these results: Sequences can lack the tags named with a protein. For some of these results: Binding seen in cells or lysates may run through a third protein.

Assays:
[1] = target: T1, dysadherin (human (endogenous in SW480)) (UniProt Q96DB9); assay: co-IP; exogenous fibronectin added prior to the anti-dysadherin (M53) co-IP of SW480 cells, immunoblot for fibronectin
T1 sequence: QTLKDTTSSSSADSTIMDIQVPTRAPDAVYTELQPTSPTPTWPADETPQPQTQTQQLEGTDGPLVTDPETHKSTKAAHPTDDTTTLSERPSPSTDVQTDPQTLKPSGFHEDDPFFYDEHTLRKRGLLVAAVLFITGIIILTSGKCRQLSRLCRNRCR

[2] = target: T2, dysadherin ΔC-mutant, His-tagged (UniProt Q96DB9); assay: pull-down; purified His-tagged dysadherin proteins (full length, ΔN, ΔC; from E. coli) with purified fibronectin protein; both purified
T2 sequence: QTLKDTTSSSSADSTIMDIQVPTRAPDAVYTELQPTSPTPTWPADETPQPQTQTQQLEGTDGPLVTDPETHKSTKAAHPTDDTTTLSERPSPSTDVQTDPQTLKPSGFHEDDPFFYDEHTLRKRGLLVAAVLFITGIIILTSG

peptide N#4 = target: T3, peptide N#4; assay: pull-down; purified His-tagged synthesized peptides (N#1 to N#5) with purified fibronectin; both purified
T3 sequence (peptide): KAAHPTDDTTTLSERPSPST

peptide N#3 = target: T4, peptide N#3; assay: as above
T4 sequence (peptide): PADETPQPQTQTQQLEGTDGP

Row | binding [1] | binding [2] | binding (peptide N#4) | binding (peptide N#3) | Substance
1 | binds |  |  |  | exogenous fibronectin
2 |  | binds | binds | binds | purified fibronectin protein
